In the supplement of paper PMC10735217:
The other results are listed elsewhere or left out. Single values are uncertain here, since repeats match poorly.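 Human kidney-derived cells stably carry a construct in which eight TEAD-binding elements drive luciferase, measured by luminescence in a drug-repurposing library screen. A hit is any compound whose signal exceeds the plate mean by more than five robust Z scores.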

System: HEK293A TEAD-LUC reporter
Test: TEAD-luciferase reporter activity (YAP activation), robust Z score vs plate; higher = stronger YAP/TEAD activation
Conditions: 24 h

Compound | TEAD-luciferase reporter activity (compound concentration: 200 nM) | TEAD-luciferase reporter activity (compound concentration: 2 uM) | TEAD-luciferase reporter activity (compound concentration: 10 uM)
COC(=O)c1cc(O)nc(O)n1 | inactive: 4.46 | inactive: 0.0805 | inactive: 1.52
CSCCC(NC(=O)C(CC(C)C)NC(=O)CNC(=O)C(Cc1ccccc1)NC(=O)C(N)Cc1ccccc1)C(N)=O (stereo not drawn) | inactive: -1.14 | inactive: -0.0156 | inactive: 3.19
CC1CN(c2cc3c(cc2F)c(=O)c(C(=O)O)cn3-c2ccc(F)cc2F)CCN1 (stereo not drawn) [temafloxacin] | inactive: -0.992 | inactive: -0.504 | inactive: 3.91
CCOC(=O)Cc1cc(Cl)c(Oc2ccc(C(=O)NC(C)(C)C)cc2NS(=O)(=O)c2ccccc2OC)cc1F | inactive: -0.697 | inactive: -0.375 | inactive: -0.51
CC(C(=O)OCCOCCN1CCN(C(c2ccccc2)c2ccc(Cl)cc2)CC1)c1cccc(C(=O)c2ccccc2)c1 (stereo not drawn) [fenclozine] | inactive: -1.11 | inactive: -0.397 | inactive: 0.591
COc1cccc(CN2C[Si](C)(C)O[Si](C)(C)C2)c1 | inactive: -1.38 | inactive: -1.04 | inactive: -1.04
Cc1c(-c2ccccc2)oc2ccc(OCCCCCCN3CCC(O)CC3)cc2c1=O | inactive: 2.6 | inactive: 0.757 | inactive: -0.0103
OC1(c2cccs2)CCC(CCN2CCN(c3ccccn3)CC2)CC1 (stereo not drawn) | inactive: -0.443 | inactive: -0.907 | inactive: -0.0429
CCCCCCCCOC(=O)C1=C(C)NC(C)=C(C(=O)NC2CC2)C1c1ccccc1[N+](=O)[O-] (stereo not drawn) | inactive: -1.17 | inactive: 0.193 | inactive: -0.668
c1ccc(N2CCCNCC2)cc1 | inactive: -1.12 | inactive: -1.95 | inactive: -0.16
CC(C)=CCC/C(C)=C/CC/C(C)=C/CC/C(C)=C/CC1=C(C)C(=O)c2ccccc2C1=O [menatetre] | inactive: -1.48 | inactive: -0.583 | inactive: 1.2
CN1CCN(c2ccc(C(=O)NCc3cnc(C#N)nc3NCC(C)(C)C)cc2)CC1 [Dutacatib] | inactive: -2.1 | inactive: -0.483 | inactive: 1.77
C[C@]12CC[C@@H]3c4ccc(OS(N)(=O)=O)cc4CC[C@H]3[C@@H]1CCC2=O | inactive: 0.691 | inactive: 1.72 | inactive: 3.06
Cc1cc(Cl)ccc1S(=O)(=O)NC[C@H]1C2CCC(CC2)[C@@H]1/C=C\CCCC(=O)O | inactive: 0.147 | inactive: 1.72 | inactive: 2.48
CCCCCCCCCCCCCCOc1ccc(C(=O)OCC(F)(F)F)o1 [once thought to be DRM-01] | – | inactive: -0.34 | –
CCCCCCCCCCCCCCOc1ccc(C(=O)OCC(F)(F)F)o1 | inactive: -1.99 | – | inactive: 2.08
CSc1ccc(C(=O)/C=C/c2cc(C)c(OC(C)(C)C(=O)O)c(C)c2)cc1 | inactive: 0.99 | inactive: 0.685 | inactive: 0.864
CCCCCCCCN[C@H](C)[C@@H](O)c1ccc(SC(C)C)cc1 [suloctidil] | inactive: -0.663 | inactive: 3.54 | inactive: 0.775
FC(F)(F)c1ccc(Nc2nc(N3CCCCC3)nc3c2CCN(c2ncccc2C(F)(F)F)CC3)cc1 | inactive: -0.727 | inactive: 0.673 | inactive: 0.921
NCC(=O)N1CCC[C@H]1C(=O)N[C@@H](CCC(=O)O)C(=O)O | inactive: -0.651 | inactive: -1.41 | inactive: -1.04
CCC1=C[C@@H]2CN(C1)Cc1c([nH]c3ccccc13)[C@@](C(=O)OC)(c1cc3c(cc1OC)N(C)[C@H]1[C@@](O)(C(=O)OC)[C@H](OC(C)=O)[C@]4(CC)C=CCN5CC[C@]31[C@@H]54)C2 [vinorelbine] | inactive: -2.38 | inactive: 4.97 | inactive: 1.22
Cn1nc(N)nc1NCCCOc1cccc2c1CCC2N1CCCCC1 (stereo not drawn) | inactive: -1.02 | inactive: -0.311 | inactive: 0.593
C[C@H](CO)Nc1nc(Nc2ccc(S(N)(=O)=O)cc2)ncc1Br | – | inactive: -0.356 | –
O=C(Nc1ccncc1)Nc1ccc(-c2nc(N3CCOCC3)nc(N3C4CCC3COC4)n2)cc1 | inactive: 0.13 | inactive: -1.33 | inactive: -1.11
CCN(CC)C(=S)[S-] [disulfiram, Ora Bio-2] | inactive: -1.13 | inactive: -1.95 | inactive: -2.36
CC(=O)N[C@H](C(=O)N[C@H](Cc1cn(C=O)c2ccccc12)C(=O)N[C@@H](Cc1ccccc1)C(=O)N(C)Cc1ccccc1)[C@@H](C)O | inactive: -0.405 | inactive: -0.316 | inactive: -0.166

Single entries from above.
In TEAD-luciferase reporter activity (compound concentration: 10 uM), CCCCCCCCN[C@H](C)[C@@H](O)c1ccc(SC(C)C)cc1 [suloctidil] has the entry inactive: 0.775
In TEAD-luciferase reporter activity (compound concentration: 200 nM), CCC1=C[C@@H]2CN(C1)Cc1c([nH]c3ccccc13)[C@@](C(=O)OC)(c1cc3c(cc1OC)N(C)[C@H]1[C@@](O)(C(=O)OC)[C@H](OC(C)=O)[C@]4(CC)C=CCN5CC[C@]31[C@@H]54)C2 [vinorelbine] has the entry inactive: -2.38
